Laboratory results published in patent US7230139B2, “Diterpenoid compounds, compositions thereof and their use as anti-cancer or anti-fungal agents” (priority 2004, dated 2007).
At least one structure is not confirmed: it was looked up by name or label, or the drawing left a doubt.

Tests used:
[1] = test system: H1299 non-small cell lung carcinoma cells; assay: Caspase activity assay in lysates of treated cells; type: cell-based; conditions: 16 hours incubation with 1.6 μM, two fold (200%) of DMSO control = positive
[2] = test system: C33A cervical carcinoma cells; assay: Caspase activity assay in lysates of treated cells; type: cell-based; conditions: 16 hours incubation with 1.6 μM, two fold (200%) of DMSO control = positive
[3] = test system: H1299 and C33A cancer cells versus HMEC and MRC-5 normal cells; conditions: 1.6 μM, 72 hours; H1299 and C33A vs HMEC and MRC-5
Procedure: H1299 non-small cell lung carcinoma cells, C33A cervical carcinoma cells, Mrc-5 normal lung fibroblasts (American Type Culture Collection, Manassas, Va. USA) and HMEC normal mammary epithelial cells (Clonetics San Diego, Calif., USA) were cultured in RPMI 1640 media supplemented with 10% fetal calf serum (Sigma-Aldrich Inc., St. Louis, Mo. USA). The four cells lines were plated in 96-well microtiter plates (PerkinElmer Life Sciences Inc, Boston, Mass. USA) at a confluency that allowed them to reach confluence after 4 days of growth. One day after plating, the cells were treated either with 10 μM etoposide, 100 nM staurosporine or 1.6 μM of Compound 48. Stock solutions of each compound were prepared in dimethyl sulfoxide (Sigma-Aldrich Inc., St. Louis, Mo. USA), diluted in media then added to the cells. The total dimethyl sulfoxide on the cells was 1%. After 3 days of incubation, the ATP levels in the cells were quantified using the luminescent ViaLight detection system (Bio-Whittaker, Md., USA). The results were plotted relative to untreated control cells, which were set at 100.

[4] = test system: normal cell line (Mrc-5 normal lung fibroblasts, HMEC normal mammary epithelial cells); assay: Caspase activity assay in lysates of treated cells; type: cell-based; conditions: 16 hours incubation with 1.6 μM

## COc1cc2c(cc1C)C(=O)C(O)=C1C(C)(C)C(=O)C=CC12C (stereo not shown) [Compound 48, 10-Hydroxy-6-methoxy-1,1,4a,7-tetramethyl-1H,4aH-phenanthrene-2,9-dione]
[1]
  Caspase activation: caspases were activated
[2]
  Caspase activation: caspases were activated
[3]
  Lowering of ATP levels in cancer cells compared with normal cells: significantly more effective at lowering ATP levels
[4]
  Caspase activation: not in the normal cell line
